A short description of the experiment: qHTS Assay for Lipid Storage Modulators in Drosophila S3 Cells.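 As to cell number change: cells counted by Cell Tracker Red CMTPX staining in the red channel.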 The conditions noted are these: BODIPY lipid droplet fluorescence, 18-24 h; for cell number change: measured here: cell count max response, cells fed with added oleic acid. The method, boiled down:
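Laser-scanning cytometry quantifies lipid droplet accumulation (500–530 nm total intensity; droplet/cell object ratio) in oleic acid-fed (400 uM added) Drosophila S3 cells treated with a concentration series. 20 uM Triacsin C defined 100% inhibition.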
For orientation: qHTS replaces the single test concentration by a dilution series.

The mark [1] stands for this setting: measured here: lipid fluorescence (Fed channel) AC50, cells fed with added oleic acid.
[2] abbreviates: measured here: cell number channel AC50, cells fed with added oleic acid.

Some of the results follow. Shown are side measurements of this screen, not its main read-out; they come without a call. Compounds called inactive in the main read-out are mostly missing here. The note in brackets gives the kind of curve behind each potency; many fits are weak.

A word on the AC50: it is the concentration at which the activity in the assay is half-maximal. Low readings indicate greater potency, high ones weaker potency.

`CC(=O)c1cc2c(cc1NS(=O)(=O)c1ccccc1Br)OCO2`: the cell number change is -8.26%.

Turning to `O=c1[nH]c(CSc2ncc(C(F)(F)F)cc2Cl)nc2cc(C(F)(F)F)ccc12`, the cell number change worked out at 20.9%. The AC50 under setting [1] is 29.1 µM [rising, single point].

Regarding `CC(C)(C)OC(=O)NCCCCCc1cn(CC(=O)NCCCCCCCCCCC(=O)N2CCN(C(=O)OC(C)(C)C)CC2)nn1`, the cell number change was -20.2%. In addition, under setting [1], the AC50 was 5.8 µM [falling, partial curve].

Turning to `Cn1nc(C(F)(F)F)c2cc(C(=O)O)sc21`, the cell number change was -3.51%. Moreover, under setting [2], the AC50 is 0.82 µM [falling, full curve].

As to `COc1cccc(C(=O)Nc2ccc(N3CCCC3)cc2)c1`, the cell number change is 9.28%.

Take `Cc1ccc(NS(=O)(=O)c2ccc(C(=O)OCC(=O)N3CCCCC3)cc2)cc1`: the cell number change was 6.88%. For the same molecule, the AC50 under setting [1] is 10.3 µM [falling, partial curve].

With `CCOC(=O)c1c(NC(=O)c2ccno2)c2cc([N+](=O)[O-])ccc2n1C`, the cell number change is -18.6%. For the same molecule, the AC50 under setting [1] is 29.1 µM [rising, single point].

`C=CCn1c(-c2cccc(Cl)c2)n[nH]c1=S`: the cell number change was 14.9%. Moreover, the half-maximal activity concentration (AC50) under setting [1] was 4.11 µM [rising, full curve].

Take `CC(C)n1cnnc1SCC(=O)Nc1ccc(Br)cc1F`: the AC50 under setting [1] is 7.31 µM [rising, partial curve].

In the case of `CCCn1c(SCC(=O)Nc2nnc(-c3ccccc3)s2)nnc1-c1ccccn1`, the cell number change is -98.1%.

For the molecule `CCC(=O)Nc1nc2ccc(NC(=O)COc3ccccc3)cc2s1`, the cell number change turned out to be 8.41%. The AC50 under setting [1] was 0.00461 µM [rising, full curve, poor fit].

`COc1cc(-c2cc(C(=O)Nc3ccc(S(=O)(=O)Nc4ncccn4)cc3)c3ccccc3n2)cc(OC)c1OC`: the cell number change is -13.5%. Moreover, the AC50 under setting [1] is 0.0517 µM [falling, full curve, poor fit].

Regarding `Cc1ccc2c(c1)N(C(=O)CCC(=O)Nc1ccccc1Br)CC(C)O2` (centres undefined), the cell number change was 5.19%. Also, the AC50 under setting [1] was 4.61 µM [rising, single point].

For the molecule `Cc1ccc(CNC(=O)C2C3C=CC4(CN(Cc5cccnc5)C(=O)C24)O3)cc1` (centres undefined), the cell number change was 11.1%. Under setting [1], the AC50 is 18.4 µM [rising, single point].

As to `COCCOC(=O)C1=C(C)NC(=O)NC1c1ccc(Cl)cc1` (centres undefined), the cell number change was -1.99%. Also, under setting [1], the AC50 is 0.146 µM [rising, full curve, poor fit].

Turning to `Cc1[nH]c2c(Cl)cccc2c1CCNC(=O)C1CCCCC1C(=O)OCC(F)(F)F` (centres undefined), the cell number change worked out at 13.4%. For the same molecule, the concentration at half-maximal activity (AC50) under setting [1] is 3.66 µM [rising, full curve, poor fit].

For the molecule `Cc1ccc(NS(=O)(=O)c2cc(C(=O)N3CCc4ccccc4C3)ccc2Cl)cc1`, the cell number change came out at 145%. Moreover, under setting [1], the AC50 is 23.1 µM [rising, single point].

`Cc1nc(C)c(-c2csc(Nc3ncccc3C)n2)s1`: the cell number change is -36%. Besides, the AC50 under setting [2] is 20.6 µM [falling, single point]. For the same molecule, under setting [1], the AC50 is 0.651 µM [rising, full curve].

On to `COc1cc(C(=O)Nn2c(C)nc3ccccc3c2=O)cc(OC)c1OC`, for which the cell number change turned out to be 20.7%.

On to `N#Cc1ccc(N2CCN(C(=O)c3cccc(F)c3)CC2)c(F)c1`, for which the cell number change came to 16.1%. In addition, the AC50 under setting [1] was 23.1 µM [rising, single point].

As to `C/C(=N\NC(=O)CNc1ccc(F)cc1)c1cc2ccccc2o1`, the cell number change was -2.32%. Also, the AC50 under setting [1] is 1.3 µM [rising, full curve].

Turning to `O=c1[nH]c(C2CCCN(S(=O)(=O)c3ccccc3)C2)nc2c1nnn2Cc1cccc(Cl)c1` (centres undefined), under setting [1], the AC50 was 3.26 µM [falling, full curve].

As for `Cc1nc2sc(C(N)=O)c(N)c2c2c1CCCC2`, the cell number change was 17.1%. The AC50 under setting [1] is 1.3 µM [rising, full curve].

`CCOc1ccc(S(=O)(=O)N2CCCCC2)cc1NC(=O)C1=COCCO1`: the cell number change was -54.5%. Moreover, the AC50 under setting [2] is 7.31 µM [falling, single point]. For the same molecule, under setting [1], the AC50 was 20.6 µM [rising, single point].

Regarding `COCCn1c(C)cc(C(=O)COC(=O)c2[nH]c(C)c(C(C)=O)c2C)c1C`, the cell number change was 11%.

As for `CCCc1nc2ccccc2c(=O)n1NC(=O)c1c(O)c2ccccc2n(C)c1=O`, the cell number change was 3.19%.

For the molecule `O=C(OCC(=O)c1ccc(S(=O)(=O)N2CCCC2)cc1)C1=COCCO1`, the cell number change was determined as 17.4%. The AC50 under setting [1] was 4.61 µM [falling, full curve, poor fit].

Consider `C(=C\c1ccccn1)/c1cccnc1`, for which the cell number change turned out to be 12.9%. The AC50 under setting [1] is 2.31 µM [falling, partial curve].

`CCCCNC(=O)N(c1c(N)n(Cc2ccccc2)c(=O)[nH]c1=O)C1CCCC1`: the cell number change is -76.8%. In addition, the AC50 under setting [2] was 1.46 µM [falling, partial curve].

On to `NCc1cccc(CNc2ccc([N+](=O)[O-])cc2C(N)=O)c1`, for which the cell number change worked out at 18.9%. For the same molecule, the AC50 under setting [1] is 29.1 µM [falling, single point].

Regarding `CC(=O)Nc1ccccc1C(=O)N1CCN(Cc2ccccc2)CC1`, the cell number change turned out to be 40.6%. Further, the AC50 under setting [2] was 29.1 µM [rising, single point]. Also, the AC50 under setting [1] was 29.1 µM [rising, single point].

In the case of `Oc1ccc(Cl)cc1C1=Nc2ccccc2N=C(c2ccco2)C1`, the cell number change was -21.6%. In addition, the AC50 under setting [2] is 2.06 µM [falling, partial curve, poor fit]. In addition, under setting [1], the AC50 is 3.66 µM [falling, single point].

For the molecule `Cc1c(/C=N\NC(=O)c2c[nH]c3ccccc23)cnn1C`, the cell number change worked out at 27.3%. Moreover, the AC50 under setting [2] is 0.092 µM [rising, full curve, poor fit].

In the case of `COc1cc(CN2CCN(c3cccc(C)c3C)CC2)cc(Br)c1O`, the cell number change was -21.7%.

`CC1(C(=O)OCC(=O)Nc2ccccc2Cl)CC1(Cl)Cl` (centres undefined): under setting [2], the AC50 is 0.164 µM [rising, single point].

With `CCC(=O)Nc1cc(C(=O)OCC(=O)c2ccccc2)ccc1C`, the cell number change was 15.4%. Moreover, the AC50 under setting [1] was 3.26 µM [rising, partial curve].

As to `CCN(CCCNC(=O)Cn1ncc2c([nH]c3ccc(C)cc32)c1=O)c1cccc(C)c1`, the cell number change is -7.41%. Also, the AC50 under setting [1] was 6.51 µM [falling, single point].

Regarding `CC1CCCCN1C(=O)CSCC(=O)Nc1nc(-c2cccs2)cs1` (centres undefined), the cell number change was -22%. For the same molecule, the AC50 under setting [1] was 18.4 µM [falling, single point].

In the case of `COC(=O)C1C(c2ccccc2)NC(=O)NC1(O)C(F)(F)Cl` (centres undefined), the cell number change came out at 0.146%.

For `CSc1cccc(CN2CCCC(CO)(Cc3cccc(Cl)c3)C2)c1` (centres undefined), the cell number change was -40.3%. Besides, under setting [2], the AC50 was 16.4 µM [falling, single point]. Moreover, the AC50 under setting [1] was 18.4 µM [falling, single point].

(Values after PubChem BioAssay AID2685 (National Center for Advancing Translational Sciences (NCATS), 2010).)
